This is an account of results in the supplement of paper PMC9744312.

Counter-ions that a name gives are not always drawn. This is one part of the list. This is a noisy data set.

In the assay the test system is Peyronie's disease tunica albuginea primary fibroblasts. As to the kind of experiment: inhibition of TGF-beta1-induced alpha-SMA expression (myofibroblast transformation), relative to TGF-beta1-only and untreated controls; higher = stronger inhibition of myofibroblast transformation. Particulars: 10 µM; TGF-beta1 10 ng/mL; 72 h.
With `CCOC(=O)N1CCC(=C2c3ccc(Cl)cc3CCc3cccnc32)CC1` [Loratadine], the “inhibition of TGF-beta1-induced alpha-SMA expression” value (“inhibition” for short) came to 29.6%.
Then `Nc1nc(F)nc2c1ncn2[C@@H]1O[C@H](COP(=O)(O)O)[C@@H](O)[C@@H]1O` [Fludarabine Phosphate], with -8.51%.
Next, `COC(=O)[C@H](c1ccccc1Cl)N1CCc2sccc2C1` [Clopidogrel]: 37.5%; `COCCCC/C(=N\OCCN)c1ccc(C(F)(F)F)cc1` [Fluvoxamine maleate]: 25.9%.
Then `NC(=O)N1CCC(CC(=O)N2CCC([C@H]3c4ncc(Br)cc4CCc4cc(Cl)cc(Br)c43)CC2)CC1` [Lonafarnib], with 6.37%; and `C[C@H](N[C@@H](CCc1ccccc1)C(=O)O)C(=O)N1CCC[C@H]1C(=O)O` [Enalaprilat Dihydrate], with -1.88%; and `CN(C)[C@@H]1C(O)=C(C(N)=O)C(=O)[C@@]2(O)C(O)=C3C(=O)c4c(O)cccc4[C@@](C)(O)[C@H]3C[C@@H]12` [Tetracycline HCl], with 42.5%.
Consider `CNC[C@@H](O)c1ccc(O)c(O)c1` [L-Adrenaline], for which the “inhibition” value amounted to 5.79%.
Next, `CC(C)Nc1cc(-c2c[nH]c(C(=O)N[C@H](CO)c3cccc(Cl)c3)c2)c(Cl)cn1`: -55.1%.
Next, `Cc1ccc(N(CC2=NCCN2)c2cccc(O)c2)cc1` [Phentolamine Mesylate]: -11.4%; `Cc1c(C(C)C)c(=O)n(-c2ccccc2)n1C` [Propyphenazone (4-Isopropylantipyrine)]: 13.5%.
Then `CCc1ccc(CCOc2ccc(CC3SC(=O)NC3=O)cc2)nc1` (centres undefined) [Pioglitazone], with 9.33%.
With `CCc1ccc(CCOc2ccc(CC3SC(=O)NC3=O)cc2)nc1` (centres undefined) [Pioglitazone HCl], the “inhibition” value was found to be 14.6%.
Then `CCCSc1ccc2[nH]c(NC(=O)OC)nc2c1` [Albendazole], with 91.3%; and `Cc1c(Cl)cccc1Nc1ccccc1C(=O)O` [Tolfenamic Acid], with 14.3%; and `CO[C@H]1/C=C/O[C@@]2(C)Oc3c(C)c(O)c4c(O)c(c(/C=N/N5CCN(C)CC5)c(O)c4c3C2=O)NC(=O)/C(C)=C\C=C\[C@H](C)[C@H](O)[C@@H](C)[C@@H](O)[C@@H](C)[C@H](OC(C)=O)[C@@H]1C` [Rifampin], with 26.3%.
As to `CC(C(=O)O)c1ccc(CC2CCCC2=O)cc1` (centres undefined) [Loxoprofen], the “inhibition” value was determined as 42.9%.
Next, `CC(C(=O)O)c1ccc(CC2CCCC2=O)cc1` (centres undefined) [Loxoprofen Sodium]: -8.69%; `CC[C@H]1OC(=O)[C@H](C)[C@@H](O[C@H]2C[C@@](C)(OC)[C@@H](O)[C@H](C)O2)[C@H](C)[C@@H](O[C@@H]2O[C@H](C)C[C@H](N(C)C)[C@H]2O)[C@](C)(O)C[C@@H](C)C(=O)[C@H](C)[C@@H](O)[C@]1(C)O` [Erythromycin]: 70.9%.
Next, `CC[C@H]1OC(=O)[C@H](C)[C@@H](O[C@H]2C[C@@](C)(OC)[C@@H](O)[C@H](C)O2)[C@H](C)[C@@H](O[C@@H]2O[C@H](C)C[C@H](N(C)C)[C@H]2O)[C@](C)(O)C[C@@H](C)C(=O)[C@H](C)[C@@H](O)[C@]1(C)O` [Erythromycin thiocyanate]: 47.9%; `COc1cccc(-c2c(C)n(Cc3c(F)cccc3C(F)(F)F)c(=O)n(C[C@H](NCCCC(=O)O)c3ccccc3)c2=O)c1F` [Elagolix Sodium]: 53.5%; `CC1=C(/C=C/C(C)=C/C=C/C(C)=C/C=C/C=C(C)/C=C/C=C(C)/C=C/C2=C(C)CCCC2(C)C)C(C)(C)CCC1` [Beta Carotene]: 29.3%.
For `CC(C)(Oc1ccc(CCNC(=O)c2ccc(Cl)cc2)cc1)C(=O)O` [Bezafibrate], the “inhibition” value was -18.9%.
Next, `OCCN1CCN(CCCN2c3ccccc3Sc3ccc(C(F)(F)F)cc32)CC1` [Fluphenazine dihydrochloride]: 34.6%; `c1ccc(CC2=NCCN2)cc1` [Tolazoline HCl]: -28.5%; `O=C(Cn1ccnc1[N+](=O)[O-])NCc1ccccc1` [Benznidazole]: -8.89%.
On to `O=C1c2ccccc2C(=O)C1c1ccccc1` [Phenindione], for which the “inhibition” value is 15.2%.
With `O=C(c1cc(Cc2n[nH]c(=O)c3ccccc23)ccc1F)N1CCN(C(=O)C2CC2)CC1`, the “inhibition” value is -80.2%.
Next, `Clc1ccc2c(c1)C(N1CCNCC1)=Nc1ccccc1O2` [Amoxapine]: 44.6%; `O=C(O)CCc1nc(-c2ccccc2)c(-c2ccccc2)o1` [Oxaprozin]: 2.23%; `OC[C@@H](O)[C@@H](O)[C@H](O)[C@H](O)CO` [D-Mannitol]: 2.9%.
Then `C[C@H](NCc1ccc(OCc2cccc(F)c2)cc1)C(N)=O` [Safinamide Mesylate], with 7.75%.
Regarding `C[C@H](NCc1ccc(OCc2cccc(F)c2)cc1)C(N)=O` [Safinamide], the “inhibition” value is 20.6%.
Then `CCn1cc(C(=O)O)c(=O)c2cc(F)c(N3CCNCC3)nc21` [Enoxacin Sesquihydrate], with -15.4%.
Then `CCn1cc(C(=O)O)c(=O)c2cc(F)c(N3CCNCC3)nc21` [Enoxacin], with 16.9%; and `CC(=O)OCC(=O)NCCCOc1cccc(CN2CCCCC2)c1` [Roxatidine Acetate HCl], with 13.1%.
Next, `OC[C@H]1OC(O)[C@H](O)[C@@H](O)[C@@H]1O` (some centres undefined) [Dextrose]: 27.7%; `CO/N=C(\C(=O)N[C@@H]1C(=O)N2C(C(=O)O)=CCS[C@H]12)c1csc(N)n1` [Ceftizoxime]: 18.3%; `CCCc1ncc(C[n+]2ccccc2C)c(N)n1` [Amprolium HCl]: -7.95%.
As to `CC(C(=O)O)c1cccc(Oc2ccccc2)c1` (centres undefined) [Fenoprofen Calcium], the “inhibition” value was 11.5%.
Next, `CC(C(=O)O)c1cccc(Oc2ccccc2)c1` (centres undefined) [Fenoprofen calcium hydrate]: 15.2%.
As to `Oc1ccc(C2CNCCc3c2cc(O)c(O)c3Cl)cc1` (centres undefined) [Fenoldopam mesylate], the “inhibition” value is -52.7%.
On to `CC(C)=CCOc1ccc(/C=C/C(=O)c2ccc(OCC=C(C)C)cc2OCC(=O)O)cc1` [Sofalcone], for which the “inhibition” value turned out to be 17.1%.
Next, `CCN(CC)CCCC(C)Nc1ccnc2cc(Cl)ccc12` (centres undefined) [Chloroquine Phosphate]: 60.3%.
For the molecule `CS(=O)(=O)c1ccc([C@@H](O)[C@@H](CF)NC(=O)C(Cl)Cl)cc1` [Florfenicol], the “inhibition” value was -15.5%.
Next, `C[C@@H](O)[C@H]1C(=O)N2C(C(=O)O)=C(S[C@@H]3CN[C@H](C(=O)Nc4cccc(C(=O)O)c4)C3)[C@H](C)[C@H]12` [Ertapenem sodium]: 26.9%.
Next, `CCOCCn1c(C2CCN(CCc3ccc(C(C)(C)C(=O)O)cc3)CC2)nc2ccccc21` [Bilastine]: 24%; `CCCOC(C(=O)OC1CCN(C)CC1)(c1ccccc1)c1ccccc1` [Propiverine hydrochloride]: 13.5%; `C[N+](C)(C)CCOP(=O)(O)OP(=O)([O-])OC[C@H]1O[C@@H](n2ccc(N)nc2=O)[C@H](O)[C@@H]1O` [Citicoline sodium]: -1.6%.
Take `Nc1ccc(S(=O)(=O)NC(=O)c2ccccc2)cc1` [Sulfabenzamide]: the “inhibition” value is 75.8%.
Next, `CCCCCOc1ccc(-c2ccc(-c3ccc(C(=O)N[C@H]4C[C@@H](O)[C@@H](O)NC(=O)[C@@H]5[C@@H](O)[C@@H](C)CN5C(=O)[C@H]([C@@H](C)O)NC(=O)[C@H]([C@H](O)[C@@H](O)c5ccc(O)cc5)NC(=O)[C@@H]5C[C@@H](O)CN5C(=O)[C@H]([C@@H](C)O)NC4=O)cc3)cc2)cc1`: more than 100%; `CC(C)c1nc(N(C)S(C)(=O)=O)nc(-c2ccc(F)cc2)c1/C=C/[C@@H](O)C[C@@H](O)CC(=O)O` [Rosuvastatin Calcium]: 54.7%; `CC(C)c1nc(N(C)S(C)(=O)=O)nc(-c2ccc(F)cc2)c1/C=C/[C@@H](O)C[C@@H](O)CC(=O)O` [Rosuvastatin]: 67%.
On to `N[C@@H](CS)C(=O)O` [L-Cysteine HCl], for which the “inhibition” value stood at 3.99%.
Then `C1N2CN3CN1CN(C2)C3` [Methenamine], with 15.9%; and `C[Se]CC[C@H](N)C(=O)O` [L-SelenoMethionine], with -5.41%.
Next, `CCCCCN(C)CCC(O)(P(=O)(O)O)P(=O)(O)O` [Ibandronate sodium]: 15.2%; `CC(C)OC(=O)C(C(=O)OC(C)C)=C1SC=CS1` [Malotilate]: -5.3%; `CS(=O)(=O)Nc1cc2occ(NC=O)c(=O)c2cc1Oc1ccccc1` [Iguratimod]: 40.3%.
For the molecule `C[C@@H](O)[C@H]1C(=O)N2C(C(=O)O)=C(SCCNC=N)C[C@H]12` [Imipenem], the “inhibition” value stood at 28.3%.
Then `COc1cccc(CCc2ccccc2OCC(CN(C)C)OC(=O)CCC(=O)O)c1` (centres undefined) [Sarpogrelate hydrochloride], with 26.3%; and `c1ccc2c(c1)CCCC2C1=NCCN1` (centres undefined) [Tetrahydrozoline HCl], with 0.558%; and `CC(=O)S[C@@H]1CC2=CC(=O)CC[C@]2(C)[C@H]2CC[C@@]3(C)[C@@H](CC[C@@]34CCC(=O)O4)[C@H]12` [Spironolactone], with -49.4%.
Take `C#Cc1cccc(Nc2ncnc3cc(OC)c(OCCCCCCC(=O)NO)cc23)c1`: the “inhibition” value was more than 100%.
With `CCCc1cc(C(N)=S)ccn1` [Protionamide], the “inhibition” value was found to be 7.63%.
Then `C=C1CC[C@H](O)C/C1=C/C=C1\CCC[C@]2(C)[C@@H]([C@H](C)CCCC(C)C)CC[C@@H]12` [cholecalciferol (Vitamin D3)], with 16.1%; and `C[C@H]1O[C@H](O[C@H]2[C@H](O)[C@@H](O)[C@@H](O[C@H]3[C@H](O)[C@@H](O)C(O)O[C@@H]3CO)O[C@@H]2CO)[C@H](O)[C@@H](O)[C@@H]1N[C@H]1C=C(CO)[C@@H](O)[C@H](O)[C@H]1O` (some centres undefined) [Acarbose], with 16.7%.
Next, `CC[C@H]1[C@@H](O)[C@@H]2[C@H](CC[C@]3(C)[C@@H]([C@H](C)CCC(=O)O)CC[C@@H]23)[C@@]2(C)CC[C@@H](O)C[C@@H]12` [Obeticholic Acid]: 3.44%; `CNC1CCCN(c2c(F)cc3c(=O)c(C(=O)O)cn(C4CC4)c3c2OC)C1` (centres undefined) [Balofloxacin]: 6.3%.
